Results are given in words; binding and its absence hold for the method and conditions named. Binding seen in cells or lysates may run through a third protein. Some results given as binding are weak or reduced against the parent protein; the word gives no strength. For part of these data: Sequences can lack the tags named with a protein.

Protein sequences, listed by entry. Tags and fused reporters are not part of them.
UniProt Q9ULZ3: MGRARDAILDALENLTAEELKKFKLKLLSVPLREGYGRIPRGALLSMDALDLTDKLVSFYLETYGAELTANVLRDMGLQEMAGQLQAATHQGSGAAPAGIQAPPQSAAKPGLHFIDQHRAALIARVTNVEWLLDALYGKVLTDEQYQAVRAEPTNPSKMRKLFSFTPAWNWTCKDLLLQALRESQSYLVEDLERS

One assay deals with CARD8-T60-Strep (human) (UniProt Q9Y2G2). Briefly: co-IP; HEK 293T cells transiently co-transfected, 28 hours; lysate (20 mM Tris-HCl pH 7.5, 100 mM KCl, 5 mM MgCl2, 0.3% NP-40); precipitation by the Strep tag of CARD8-T60-Strep (anti-Strep; Strep-Tactin gel) overnight at 4 °C; immunoblotting.
The target in assay [1] is T1, NLRP1-FLAG truncation mutant: FIIND domain (human) (UniProt Q9C000).
T1 sequence: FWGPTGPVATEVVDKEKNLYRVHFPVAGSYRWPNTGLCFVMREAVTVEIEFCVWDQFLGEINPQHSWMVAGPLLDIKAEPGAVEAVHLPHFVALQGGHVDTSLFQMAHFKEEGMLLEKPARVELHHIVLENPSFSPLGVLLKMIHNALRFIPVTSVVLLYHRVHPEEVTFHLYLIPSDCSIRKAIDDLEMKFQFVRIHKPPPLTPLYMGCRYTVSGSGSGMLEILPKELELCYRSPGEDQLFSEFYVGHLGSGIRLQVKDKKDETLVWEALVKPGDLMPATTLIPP
Briefly: co-IP; HEK 293T cells transiently co-transfected, 28 hours; lysate (20 mM Tris-HCl pH 7.5, 100 mM KCl, 5 mM MgCl2, 0.3% NP-40) on anti-FLAG M2 agarose beads overnight at 4 °C; immunoblotting.

For assay [2], the target named is T2, NLRP1-FLAG truncation mutant: NACHT domain (human) (UniProt Q9C000).
T2 sequence: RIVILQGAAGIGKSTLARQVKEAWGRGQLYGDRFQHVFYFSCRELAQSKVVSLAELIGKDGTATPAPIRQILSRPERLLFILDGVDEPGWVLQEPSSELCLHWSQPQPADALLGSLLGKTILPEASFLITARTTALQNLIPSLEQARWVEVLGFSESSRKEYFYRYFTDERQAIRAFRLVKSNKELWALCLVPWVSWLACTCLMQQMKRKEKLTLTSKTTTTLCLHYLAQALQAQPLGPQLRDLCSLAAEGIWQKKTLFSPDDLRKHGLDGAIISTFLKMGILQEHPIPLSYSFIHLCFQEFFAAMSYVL
The description is as above.

The target in assay [3] is T3, CARD8-T48-FLAG (human), Q9Y2G2.
T3 chain: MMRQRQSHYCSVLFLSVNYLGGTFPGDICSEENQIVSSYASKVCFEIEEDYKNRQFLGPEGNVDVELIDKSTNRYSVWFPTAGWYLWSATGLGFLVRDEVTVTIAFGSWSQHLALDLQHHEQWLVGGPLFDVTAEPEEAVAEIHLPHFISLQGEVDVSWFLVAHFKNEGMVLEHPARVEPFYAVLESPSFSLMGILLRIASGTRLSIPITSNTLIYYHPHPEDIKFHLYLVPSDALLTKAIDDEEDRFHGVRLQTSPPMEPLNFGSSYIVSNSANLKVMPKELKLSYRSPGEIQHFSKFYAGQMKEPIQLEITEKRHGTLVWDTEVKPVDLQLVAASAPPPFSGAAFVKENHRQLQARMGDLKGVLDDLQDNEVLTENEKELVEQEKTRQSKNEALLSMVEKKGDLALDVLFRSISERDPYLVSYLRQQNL
The assay is described as above. Conditions: remark: other sources report otherwise.

In assay [4] the target is CARD8-T48-Q152QA-FLAG (human) (UniProt Q9Y2G2). Described as above.
The target of a further assay is CARD8-T60-FLAG (human) (UniProt Q9Y2G2). The description is as above.

Regarding ASC-FLAG (from UniProt Q9ULZ3 1-195), the binding result with CARD8-T60-Strep (human) was “no binding”.

B1: CARD8-T60-Strep (natural protein, human, UniProt Q9Y2G2-5 1-537, looked up)
chain: MEKKECPEKSSSSEEELPRRDSGSSRNIDASKLIRLQGSRKLLVDNSIRELQYTKTGIFFQAEACVTNDTVYRELPCVSETLCDISHFFQEDDETEAEPLLFRAVPECQLSGGDIPSVSEEQESSEGQDSGDICSEENQIVSSYASKVCFEIEEDYKNRQFLGPEGNVDVELIDKSTNRYSVWFPTAGWYLWSATGLGFLVRDEVTVTIAFGSWSQHLALDLQHHEQWLVGGPLFDVTAEPEEAVAEIHLPHFISLQAGEVDVSWFLVAHFKNEGMVLEHPARVEPFYAVLESPSFSLMGILLRIASGTRLSIPITSNTLIYYHPHPEDIKFHLYLVPSDALLTKAIDDEEDRFHGVRLQTSPPMEPLNFGSSYIVSNSANLKVMPKELKLSYRSPGEIQHFSKFYAGQMKEPIQLEITEKRHGTLVWDTEVKPVDLQLVAASAPPPFSGAAFVKENHRQLQARMGDLKGVLDDLQDNEVLTENEKELVEQEKTRQSKNEALLSMVEKKGDLALDVLFRSISERDPYLVSYLRQQNL
notes: CARD8, T60 isoform, human, UniProt Q9Y2G2-5, full length; The host of the purified protein is told only as a mammalian expression system; also called CARD8-Strep; T60 isoform of CARD8; source: HEK 293T, transiently transfected, in lysate; also purified using mammalian protein expression system
B1: the binding result in assay [1] and in assay [2] was “binds” in each case.

B2: NLRP1-Strep, Q9C000-1 1-1473 (protein)
chain: MAGGAWGRLACYLEFLKKEELKEFQLLLANKAHSRSSSGETPAQPEKTSGMEVASYLVAQYGEQRAWDLALHTWEQMGLRSLCAQAQEGAGHSPSFPYSPSEPHLGSPSQPTSTAVLMPWIHELPAGCTQGSERRVLRQLPDTSGRRWREISASLLYQALPSSPDHESPSQESPNAPTSTAVLGSWGSPPQPSLAPREQEAPGTQWPLDETSGIYYTEIREREREKSEKGRPPWAAVVGTPPQAHTSLQPHHHPWEPSVRESLCSTWPWKNEDFNQKFTQLLLLQRPHPRSQDPLVKRSWPDYVEENRGHLIEIRDLFGPGLDTQEPRIVILQGAAGIGKSTLARQVKEAWGRGQLYGDRFQHVFYFSCRELAQSKVVSLAELIGKDGTATPAPIRQILSRPERLLFILDGVDEPGWVLQEPSSELCLHWSQPQPADALLGSLLGKTILPEASFLITARTTALQNLIPSLEQARWVEVLGFSESSRKEYFYRYFTDERQAIRAFRLVKSNKELWALCLVPWVSWLACTCLMQQMKRKEKLTLTSKTTTTLCLHYLAQALQAQPLGPQLRDLCSLAAEGIWQKKTLFSPDDLRKHGLDGAIISTFLKMGILQEHPIPLSYSFIHLCFQEFFAAMSYVLEDEKGRGKHSNCIIDLEKTLEAYGIHGLFGASTTRFLLGLLSDEGEREMENIFHCRLSQGRNLMQWVPSLQLLLQPHSLESLHCLYETRNKTFLTQVMAHFEEMGMCVETDMELLVCTFCIKFSRHVKKLQLIEGRQHRSTWSPTMVVLFRWVPVTDAYWQILFSVLKVTRNLKELDLSGNSLSHSAVKSLCKTLRRPRCLLETLRLAGCGLTAEDCKDLAFGLRANQTLTELDLSFNVLTDAGAKHLCQRLRQPSCKLQRLQLVSCGLTSDCCQDLASVLSASPSLKELDLQQNNLDDVGVRLLCEGLRHPACKLIRLGLDQTTLSDEMRQELRALEQEKPQLLIFSRRKPSVMTPTEGLDTGEMSNSTSSLKRQRLGSERAASHVAQANLKLLDVSKIFPIAEIAEESSPEVVPVELLCVPSPASQGDLHTKPLGTDDDFWGPTGPVATEVVDKEKNLYRVHFPVAGSYRWPNTGLCFVMREAVTVEIEFCVWDQFLGEINPQHSWMVAGPLLDIKAEPGAVEAVHLPHFVALQGGHVDTSLFQMAHFKEEGMLLEKPARVELHHIVLENPSFSPLGVLLKMIHNALRFIPVTSVVLLYHRVHPEEVTFHLYLIPSDCSIRKAIDDLEMKFQFVRIHKPPPLTPLYMGCRYTVSGSGSGMLEILPKELELCYRSPGEDQLFSEFYVGHLGSGIRLQVKDKKDETLVWEALVKPGDLMPATTLIPPARIAVPSPLDAPQLLHFVDQYREQLIARVTSVEVVLDKLHGQVLSQEQYERVLAENTRPSQMRKLFSLSQSWDRKCKDGLYQALKETHPHLIMELWEKGSKKGLLPLSS
As to B2, in assay [3], the binding result was “binds”.

B3: NLRP1-Strep (protein, UniProt Q9C000-1 1-1473)
chain: MAGGAWGRLACYLEFLKKEELKEFQLLLANKAHSRSSSGETPAQPEKTSGMEVASYLVAQYGEQRAWDLALHTWEQMGLRSLCAQAQEGAGHSPSFPYSPSEPHLGSPSQPTSTAVLMPWIHELPAGCTQGSERRVLRQLPDTSGRRWREISASLLYQALPSSPDHESPSQESPNAPTSTAVLGSWGSPPQPSLAPREQEAPGTQWPLDETSGIYYTEIREREREKSEKGRPPWAAVVGTPPQAHTSLQPHHHPWEPSVRESLCSTWPWKNEDFNQKFTQLLLLQRPHPRSQDPLVKRSWPDYVEENRGHLIEIRDLFGPGLDTQEPRIVILQGAAGIGKSTLARQVKEAWGRGQLYGDRFQHVFYFSCRELAQSKVVSLAELIGKDGTATPAPIRQILSRPERLLFILDGVDEPGWVLQEPSSELCLHWSQPQPADALLGSLLGKTILPEASFLITARTTALQNLIPSLEQARWVEVLGFSESSRKEYFYRYFTDERQAIRAFRLVKSNKELWALCLVPWVSWLACTCLMQQMKRKEKLTLTSKTTTTLCLHYLAQALQAQPLGPQLRDLCSLAAEGIWQKKTLFSPDDLRKHGLDGAIISTFLKMGILQEHPIPLSYSFIHLCFQEFFAAMSYVLEDEKGRGKHSNCIIDLEKTLEAYGIHGLFGASTTRFLLGLLSDEGEREMENIFHCRLSQGRNLMQWVPSLQLLLQPHSLESLHCLYETRNKTFLTQVMAHFEEMGMCVETDMELLVCTFCIKFSRHVKKLQLIEGRQHRSTWSPTMVVLFRWVPVTDAYWQILFSVLKVTRNLKELDLSGNSLSHSAVKSLCKTLRRPRCLLETLRLAGCGLTAEDCKDLAFGLRANQTLTELDLSFNVLTDAGAKHLCQRLRQPSCKLQRLQLVSCGLTSDCCQDLASVLSASPSLKELDLQQNNLDDVGVRLLCEGLRHPACKLIRLGLDQTTLSDEMRQELRALEQEKPQLLIFSRRKPSVMTPTEGLDTGEMSNSTSSLKRQRLGSERAASHVAQANLKLLDVSKIFPIAEIAEESSPEVVPVELLCVPSPASQGDLHTKPLGTDDDFWGPTGPVATEVVDKEKNLYRVHFPVAGSYRWPNTGLCFVMREAVTVEIEFCVWDQFLGEINPQHSWMVAGPLLDIKAEPGAVEAVHLPHFVALQGGHVDTSLFQMAHFKEEGMLLEKPARVELHHIVLENPSFSPLGVLLKMIHNALRFIPVTSVVLLYHRVHPEEVTFHLYLIPSDCSIRKAIDDLEMKFQFVRIHKPPPLTPLYMGCRYTVSGSGSGMLEILPKELELCYRSPGEDQLFSEFYVGHLGSGIRLQVKDKKDETLVWEALVKPGDLMPATTLIPPARIAVPSPLDAPQLLHFVDQYREQLIARVTSVEVVLDKLHGQVLSQEQYERVLAENTRPSQMRKLFSLSQSWDRKCKDGLYQALKETHPHLIMELWEKGSKKGLLPLSS
As to B3, the binding result (in assay [4]; with CARD8-T60-FLAG (human)) was “binds” throughout.

(Values after article PMC9679424, “The CARD8 T60 variant associates with NLRP1 and negatively regulates its activation” (Frontiers in Immunology, 2022).)
